Measured values reported in patent publication USRE42274E1 (Eli Lilly and Company, priority 2007, dated 2011).

Assay: general procedure: Fmoc solid-phase peptide synthesis; Rink amide resin for C-terminal amides; [3-({ethyl-Fmoc-amino}-methyl)-indol-1-yl]-acetyl AM resin for C-terminal ethyl; DCC/HOBt or HBTU/DIEA (FastMoc)
Settings: late stage modification step; for final HPLC purity: analytical HPLC and mass spectral analysis

Substance	final HPLC purity [%]	final HPLC purity (run 1) [%]	final HPLC purity (run 2) [%]	step yield (recovery yield)
cyclo[Phe-Tyr-Lys(iPr)-DArg-2Nal-Gly-DGlu]-Lys (iPr)-NHEt	99.16			
cyclo[Phe-Tyr-Lys(iPr)-DArg-2Nal-Gly-DGlu]-Lys(iPr)-NH2		97.5	96.5	90% or higher
cyclo[Phe-Tyr-Lys(iPr-d6)-DArg-2Nal-Gly-DGlu]-Lys(iPr-d6)-NH2	99.9			
